From the supplement of paper PMC10849652
The other results are listed elsewhere or left out.

Amino acid sequences for entries named in this document (tags omitted). A change or cut given only in a name is not applied to a line headed by its entry.
UniProt Q8WVX9: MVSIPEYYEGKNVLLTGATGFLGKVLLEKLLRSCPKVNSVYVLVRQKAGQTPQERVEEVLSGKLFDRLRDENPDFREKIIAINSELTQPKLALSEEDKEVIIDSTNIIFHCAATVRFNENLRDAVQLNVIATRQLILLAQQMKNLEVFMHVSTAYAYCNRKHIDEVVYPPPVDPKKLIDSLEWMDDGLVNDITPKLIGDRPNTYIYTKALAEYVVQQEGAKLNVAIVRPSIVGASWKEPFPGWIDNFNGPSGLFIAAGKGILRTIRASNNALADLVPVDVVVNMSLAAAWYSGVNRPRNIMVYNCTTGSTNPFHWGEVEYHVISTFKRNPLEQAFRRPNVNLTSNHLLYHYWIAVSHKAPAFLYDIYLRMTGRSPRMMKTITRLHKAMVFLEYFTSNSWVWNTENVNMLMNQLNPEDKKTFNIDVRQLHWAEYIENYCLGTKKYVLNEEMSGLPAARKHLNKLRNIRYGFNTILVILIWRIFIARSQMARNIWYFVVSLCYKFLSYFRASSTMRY
UniProt Q17RN3: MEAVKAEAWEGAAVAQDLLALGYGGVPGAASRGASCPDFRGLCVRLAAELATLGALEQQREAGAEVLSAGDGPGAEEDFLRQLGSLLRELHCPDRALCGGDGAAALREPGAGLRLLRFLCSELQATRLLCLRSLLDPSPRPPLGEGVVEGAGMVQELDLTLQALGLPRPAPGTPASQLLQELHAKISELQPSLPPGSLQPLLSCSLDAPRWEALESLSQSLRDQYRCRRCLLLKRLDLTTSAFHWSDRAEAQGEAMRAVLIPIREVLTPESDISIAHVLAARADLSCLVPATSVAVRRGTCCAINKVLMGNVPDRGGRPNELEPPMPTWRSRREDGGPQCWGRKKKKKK
UniProt Q9NXK8: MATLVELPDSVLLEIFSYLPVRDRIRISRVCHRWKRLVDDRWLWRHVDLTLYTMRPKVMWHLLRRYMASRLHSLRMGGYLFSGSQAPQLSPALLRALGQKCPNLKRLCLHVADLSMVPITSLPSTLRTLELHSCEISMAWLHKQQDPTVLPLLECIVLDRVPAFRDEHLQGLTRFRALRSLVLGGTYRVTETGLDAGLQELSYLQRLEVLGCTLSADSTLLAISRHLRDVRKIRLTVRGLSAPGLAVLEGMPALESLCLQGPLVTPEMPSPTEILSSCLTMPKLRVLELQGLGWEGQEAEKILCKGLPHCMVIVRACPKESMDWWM
UniProt A6NHQ2: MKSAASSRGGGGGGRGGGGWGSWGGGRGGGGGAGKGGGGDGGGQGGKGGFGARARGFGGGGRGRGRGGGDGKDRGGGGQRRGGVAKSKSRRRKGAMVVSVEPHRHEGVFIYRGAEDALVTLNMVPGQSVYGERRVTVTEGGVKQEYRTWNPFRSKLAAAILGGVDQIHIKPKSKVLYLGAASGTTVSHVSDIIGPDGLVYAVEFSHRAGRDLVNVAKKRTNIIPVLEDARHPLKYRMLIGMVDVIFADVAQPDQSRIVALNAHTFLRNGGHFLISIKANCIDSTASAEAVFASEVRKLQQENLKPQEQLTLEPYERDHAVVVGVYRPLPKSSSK
UniProt P02751, whole entry, looked up: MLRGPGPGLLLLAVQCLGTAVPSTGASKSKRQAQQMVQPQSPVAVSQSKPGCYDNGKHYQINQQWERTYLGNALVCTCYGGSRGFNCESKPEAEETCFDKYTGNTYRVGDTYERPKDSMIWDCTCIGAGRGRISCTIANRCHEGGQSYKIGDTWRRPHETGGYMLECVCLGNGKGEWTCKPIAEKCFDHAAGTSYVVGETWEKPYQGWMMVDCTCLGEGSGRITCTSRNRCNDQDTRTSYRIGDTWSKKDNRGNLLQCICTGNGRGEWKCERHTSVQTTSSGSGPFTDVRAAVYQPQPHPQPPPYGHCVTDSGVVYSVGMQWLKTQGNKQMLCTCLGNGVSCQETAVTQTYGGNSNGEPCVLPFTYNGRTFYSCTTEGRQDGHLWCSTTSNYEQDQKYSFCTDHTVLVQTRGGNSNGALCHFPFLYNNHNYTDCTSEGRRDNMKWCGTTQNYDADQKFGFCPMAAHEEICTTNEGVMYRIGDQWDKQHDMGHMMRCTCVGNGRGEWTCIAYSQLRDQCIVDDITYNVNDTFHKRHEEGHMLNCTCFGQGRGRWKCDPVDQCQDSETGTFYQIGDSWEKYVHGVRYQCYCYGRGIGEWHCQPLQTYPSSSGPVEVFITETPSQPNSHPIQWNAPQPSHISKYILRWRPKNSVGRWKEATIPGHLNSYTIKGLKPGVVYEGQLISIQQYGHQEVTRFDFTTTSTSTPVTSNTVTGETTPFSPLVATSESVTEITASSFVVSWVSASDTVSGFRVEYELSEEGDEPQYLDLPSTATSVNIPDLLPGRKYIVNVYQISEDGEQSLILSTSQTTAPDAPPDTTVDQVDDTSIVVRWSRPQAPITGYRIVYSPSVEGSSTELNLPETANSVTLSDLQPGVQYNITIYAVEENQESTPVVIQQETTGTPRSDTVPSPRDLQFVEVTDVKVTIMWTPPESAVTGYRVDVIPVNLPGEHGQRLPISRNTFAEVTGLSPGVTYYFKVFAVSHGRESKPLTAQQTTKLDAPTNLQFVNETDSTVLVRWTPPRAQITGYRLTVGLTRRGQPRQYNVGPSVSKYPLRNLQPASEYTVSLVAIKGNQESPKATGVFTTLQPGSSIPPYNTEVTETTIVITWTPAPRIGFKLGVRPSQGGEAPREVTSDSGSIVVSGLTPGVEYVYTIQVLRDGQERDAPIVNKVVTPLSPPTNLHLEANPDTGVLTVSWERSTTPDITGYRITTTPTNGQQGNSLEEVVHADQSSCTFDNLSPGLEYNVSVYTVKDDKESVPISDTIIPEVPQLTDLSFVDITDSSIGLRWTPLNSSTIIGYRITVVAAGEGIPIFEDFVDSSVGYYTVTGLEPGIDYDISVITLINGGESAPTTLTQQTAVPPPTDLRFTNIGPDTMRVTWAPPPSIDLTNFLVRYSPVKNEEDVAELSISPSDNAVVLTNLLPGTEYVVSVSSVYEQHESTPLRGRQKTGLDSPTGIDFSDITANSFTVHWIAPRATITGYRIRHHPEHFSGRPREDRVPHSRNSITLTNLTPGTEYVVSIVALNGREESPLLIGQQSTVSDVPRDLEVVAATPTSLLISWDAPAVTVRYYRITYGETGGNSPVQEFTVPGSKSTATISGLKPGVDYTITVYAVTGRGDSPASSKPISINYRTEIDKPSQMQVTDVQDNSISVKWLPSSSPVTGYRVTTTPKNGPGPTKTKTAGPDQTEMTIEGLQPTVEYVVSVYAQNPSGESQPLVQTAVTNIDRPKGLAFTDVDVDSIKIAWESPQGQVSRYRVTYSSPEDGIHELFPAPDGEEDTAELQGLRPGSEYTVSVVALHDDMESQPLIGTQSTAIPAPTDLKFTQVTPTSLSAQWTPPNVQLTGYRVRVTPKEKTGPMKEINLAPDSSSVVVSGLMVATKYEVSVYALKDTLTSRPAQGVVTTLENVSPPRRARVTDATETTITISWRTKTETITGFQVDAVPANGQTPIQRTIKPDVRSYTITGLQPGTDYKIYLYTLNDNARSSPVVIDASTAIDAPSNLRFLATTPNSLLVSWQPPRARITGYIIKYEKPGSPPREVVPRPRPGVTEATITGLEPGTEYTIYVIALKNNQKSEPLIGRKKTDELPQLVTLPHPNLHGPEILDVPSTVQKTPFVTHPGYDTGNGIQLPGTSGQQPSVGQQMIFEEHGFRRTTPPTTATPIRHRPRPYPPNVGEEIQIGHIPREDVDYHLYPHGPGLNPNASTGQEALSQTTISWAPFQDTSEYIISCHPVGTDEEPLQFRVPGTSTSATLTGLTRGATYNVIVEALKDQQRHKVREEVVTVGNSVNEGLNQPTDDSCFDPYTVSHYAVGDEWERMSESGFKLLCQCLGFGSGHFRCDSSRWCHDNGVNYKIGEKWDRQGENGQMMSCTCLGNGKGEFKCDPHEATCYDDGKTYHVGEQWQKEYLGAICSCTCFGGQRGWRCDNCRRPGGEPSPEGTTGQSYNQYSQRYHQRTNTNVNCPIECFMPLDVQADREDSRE
UniProt P22830: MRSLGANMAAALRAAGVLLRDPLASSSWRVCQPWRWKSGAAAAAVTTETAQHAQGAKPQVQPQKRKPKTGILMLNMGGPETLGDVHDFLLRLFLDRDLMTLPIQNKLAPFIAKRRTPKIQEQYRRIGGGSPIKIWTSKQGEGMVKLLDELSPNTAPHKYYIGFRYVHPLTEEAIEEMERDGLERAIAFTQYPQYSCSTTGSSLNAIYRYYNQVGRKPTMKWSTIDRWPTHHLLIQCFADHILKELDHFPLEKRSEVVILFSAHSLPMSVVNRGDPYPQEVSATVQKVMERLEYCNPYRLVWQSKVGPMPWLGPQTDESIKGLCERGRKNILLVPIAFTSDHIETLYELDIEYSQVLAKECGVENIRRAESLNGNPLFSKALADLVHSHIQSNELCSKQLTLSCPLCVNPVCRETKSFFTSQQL
UniProt Q96ME1: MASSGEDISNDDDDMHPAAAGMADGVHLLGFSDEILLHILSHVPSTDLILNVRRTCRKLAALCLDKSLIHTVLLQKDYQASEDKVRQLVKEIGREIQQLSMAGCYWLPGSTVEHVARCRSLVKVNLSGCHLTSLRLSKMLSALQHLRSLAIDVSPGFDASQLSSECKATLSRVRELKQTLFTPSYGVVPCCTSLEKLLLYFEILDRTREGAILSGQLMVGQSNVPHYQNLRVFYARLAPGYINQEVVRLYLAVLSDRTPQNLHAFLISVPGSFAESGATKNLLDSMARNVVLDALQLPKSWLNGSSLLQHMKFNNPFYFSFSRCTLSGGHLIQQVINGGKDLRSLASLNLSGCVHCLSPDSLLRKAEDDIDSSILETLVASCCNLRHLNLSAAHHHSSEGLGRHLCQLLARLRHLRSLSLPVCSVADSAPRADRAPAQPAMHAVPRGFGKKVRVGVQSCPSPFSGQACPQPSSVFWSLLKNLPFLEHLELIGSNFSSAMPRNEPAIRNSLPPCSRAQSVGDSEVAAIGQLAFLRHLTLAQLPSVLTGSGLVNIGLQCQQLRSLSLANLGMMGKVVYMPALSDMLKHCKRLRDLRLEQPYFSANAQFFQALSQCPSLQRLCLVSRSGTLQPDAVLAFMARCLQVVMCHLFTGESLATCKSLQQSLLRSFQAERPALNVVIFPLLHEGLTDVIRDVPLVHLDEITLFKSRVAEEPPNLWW
UniProt P22570: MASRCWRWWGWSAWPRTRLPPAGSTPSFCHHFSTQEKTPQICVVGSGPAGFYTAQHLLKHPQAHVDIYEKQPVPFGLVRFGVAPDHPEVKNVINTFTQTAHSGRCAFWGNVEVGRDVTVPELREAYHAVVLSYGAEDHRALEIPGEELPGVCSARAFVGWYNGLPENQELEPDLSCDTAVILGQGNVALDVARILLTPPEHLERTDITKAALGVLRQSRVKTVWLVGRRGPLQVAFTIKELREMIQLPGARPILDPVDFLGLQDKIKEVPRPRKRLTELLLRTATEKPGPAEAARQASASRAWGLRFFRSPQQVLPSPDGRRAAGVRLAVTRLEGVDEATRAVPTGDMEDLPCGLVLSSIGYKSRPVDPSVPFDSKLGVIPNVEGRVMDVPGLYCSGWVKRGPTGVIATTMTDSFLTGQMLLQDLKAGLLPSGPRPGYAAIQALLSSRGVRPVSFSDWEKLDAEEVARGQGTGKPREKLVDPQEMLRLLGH
UniProt Q9UK99: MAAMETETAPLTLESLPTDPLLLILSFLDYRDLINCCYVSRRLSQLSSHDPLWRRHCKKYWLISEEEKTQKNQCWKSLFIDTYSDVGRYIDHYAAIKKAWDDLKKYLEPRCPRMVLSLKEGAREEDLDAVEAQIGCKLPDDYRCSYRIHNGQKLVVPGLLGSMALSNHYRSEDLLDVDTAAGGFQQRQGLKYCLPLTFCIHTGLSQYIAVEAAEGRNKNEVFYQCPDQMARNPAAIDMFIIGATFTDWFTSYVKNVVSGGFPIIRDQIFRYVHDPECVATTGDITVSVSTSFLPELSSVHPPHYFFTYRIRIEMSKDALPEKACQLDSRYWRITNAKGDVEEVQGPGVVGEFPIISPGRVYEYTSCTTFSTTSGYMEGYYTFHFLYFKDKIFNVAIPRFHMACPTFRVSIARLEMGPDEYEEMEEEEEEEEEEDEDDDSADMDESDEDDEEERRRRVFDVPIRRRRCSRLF

compound: Cn1cncc1[C@@](N)(c1ccc(Cl)cc1)c1ccc2c(c1)c(-c1cccc(Cl)c1)cc(=O)n2C [tipifarnib]; test: log2 fold change, soluble protein after heating vs DMSO (PISA); higher = thermal stabilisation; K562 lysate, 10 uM; active = over 0.2 and 3.5 SD of the protein, either way, in both replicates (recomputed)
In short: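 Log-two fold change in thermal stability relative to solvent controls is reported from duplicates. For each sample, crude K562 extract from dounce-homogenised pellets in PBS pH 7.4 with 1 mM MgCl2, at 1 mg/mL protein, was treated with 10 μM compound for 30 min. Aliquots heated for 3 min across 48°C-58°C were pooled, brought to 0.5% NP-40 at 4°C and cleared at 21,000xg for 90 min. The supernatant was quantified by TMTpro 16plex LC-MS/MS with channel sums equalised.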

| Target | log2 fold change |
| --- | --- |
| FKBPL (UniProt Q9UIM3) | inactive: 0.01 |
| FAR1 (UniProt Q8WVX9) | inactive: -0.041 |
| FLII (UniProt Q13045) | inactive: -0.008 |
| FAU (UniProt E9PR30) | inactive: 0.046 |
| FGFR1OP (UniProt O95684) | inactive: -0.008 |
| FNTB (UniProt P49356) | active: 0.239 |
| FBXO6 (UniProt Q9NRD1) | inactive: -0.006 |
| FGD6 (UniProt Q6ZV73) | inactive: -0.554 |
| FLAD1 (UniProt Q8NFF5) | inactive: 0 |
| FLNC (UniProt Q14315) | inactive: 0.009 |
| FAM8A1 (UniProt Q9UBU6) | inactive: -0.065 |
| FBXW9 (UniProt Q5XUX1) | inactive: 0.024 |
| FAM98C (UniProt Q17RN3) | inactive: -0.141 |
| FIBP (UniProt O43427) | inactive: -0.037 |
| FBXL12 (UniProt Q9NXK8) | inactive: 0.063 |
| FBLL1 (UniProt A6NHQ2) | inactive: -0.009 |
| FN1 (UniProt P02751) | inactive: -0.041 |

Shown in CSV form: entries from further up.
Target,log2 fold change
FGD6 (UniProt Q6ZV73),inactive: -0.554
FLAD1 (UniProt Q8NFF5),inactive: 0

The listing continues:

| Target | log2 fold change |
| --- | --- |
| FECH isoform 2 (UniProt P22830) | inactive: -0.007 |
| FAM98A (UniProt Q8NCA5) | inactive: 0.009 |
| FASN (UniProt P49327) | inactive: 0.01 |
| FKBP2 (UniProt P26885) | inactive: 0.014 |
| FMNL1 isoform 3 (UniProt O95466) | inactive: -0.038 |
| FKBP8 isoform 2 (UniProt Q14318) | inactive: -0.005 |
| FBXL18 isoform 4 (UniProt Q96ME1) | inactive: -0.051 |
| FKBP5 (UniProt Q13451) | inactive: 0.003 |
| FDXR isoform 7 (UniProt P22570) | inactive: 0.038 |
| FLNB isoform 8 (UniProt O75369) | inactive: 0.008 |
| FBXL8 (UniProt Q96CD0) | inactive: -0.004 |
| FERMT3 (UniProt Q86UX7) | inactive: -0.014 |
| FNBP1L (UniProt Q5T0N5) | inactive: -0.016 |
| FBXO3 (UniProt Q9UK99) | inactive: -0.038 |
| FEZ2 isoform 2 (UniProt Q9UHY8) | inactive: -0.013 |
| FLCN (UniProt Q8NFG4) | inactive: -0.058 |
